From US20060093673A1, “Controlled release of anti-arrhythmic agents” (priority 2003, published 2006)
For at least one compound, name, drawing or mass did not settle the structure.

Assay: In-vitro release from FocalSeal-L gel disks, flow-through dissolution tank
Type: physicochemical
Settings: FocalSeal-L with 1% dexamethasone and 1% amiodarone HCl; 2 mm gel disc
Description: Method: […] The gel disks were then placed in a flow-through dissolution tank and gels were sampled over time. Residual drug was extracted from the gel disks with methanol and drug was quantitated by HPLC.

SMILES | time of release of dexamethasone from FocalSeal-L [h]
CC(=O)OCC(=O)[C@@]1(O)[C@H](C)C[C@H]2[C@@H]3CCC4=CC(=O)C=C[C@]4(C)[C@@]3(F)[C@@H](O)C[C@@]21C [dexamethasone acetate] | 44
C[C@@H]1C[C@H]2[C@@H]3CCC4=CC(=O)C=C[C@]4(C)[C@@]3(F)[C@@H](O)C[C@]2(C)[C@@]1(O)C(=O)CO [dexamethasone free base, dexamethasone] | ≤ 19
